Test results reported in patent publication US7498445B2, “Thiazole-based nitric oxide donors capable of releasing two or more nitric oxide molecules and uses thereof” (priority 2004, dated 2009).
“Also recorded” adds a separate entry of the source. At least one compound was matched to its structure with a doubt left.

Experiments:
isolated rat aorta = assay: In vitro vasorelaxation of epinephrine-contracted rat aortic rings (CCRC); type: cell-based; details: isolated rat aorta pre-treated in vitro with 1 μM epinephrine; in words
Excerpt: Male Sprague Dawley rats were anaesthetized using intraperitoneal injection of ketamine and xylazine (50 and 10 milligram per kilogram, respectively) and the thoracic aorta, the large upper portion of the descending aorta, starting at the caudal border of the chest bone, was removed thereafter, while carefully removing the paraadventetial tissue surrounding the vessel. Aortae were cut into rings of 4-5 millimeters and mounted onto the tissue path. The path buffer (Krebs-bicrbonate) was constantly gassed with carbogen and maintained at 37° C. The rings were preloaded under 2 g tension and equilibrated for 90 minutes, while refreshing the buffer every 15 minutes. […] Cumulative Concentration—Response Curves (CCRC) were measured for the vasorelaxing effect induced by adding various concentrations, ranging from 10^−10 M to 10^−5 M of Pet-2, Pet-3, Pet-7, Pet-8, Pet-12, Pet-24, Pet-43, Pet-59, Pet-147, Pet-152 and Pet-154, and glyceryltrinitrate (GTN), according to the procedure described in Feelich et al., Molecular Pharmacology, 56:243-253 (1999), The vehicle, which was used for this experiment was water:ethanol:propyleneglycol at proportional ratio of 1:1:1.
The vasorelaxing effect of the thiazole-derived NO-donors according to the present invention was measured on slices of thoracic aorta of rats contracted with epinephrine, as described hereinabove.

[1] = test system: cyclic-GMP in isolated aorta of rats pre-treated in vivo; assay: Induction of in vivo nitrate tolerance: cGMP in aorta of rats infused for 16 hours; parameters: species or system rat; details: rats infused 200 μg/hour for 16 hours, aorta then exposed to 1 μM; in words
Protocol: For c-GMP levels and tolerance development, the rat's thoracic aorta was isolated after exposure to the tested compound in vivo, and measured as described above in the in vitro assays.
Male Sprague Dawley rats (220 to 250 grams) were housed under constant temperature and humidity conditions. Light was maintained at a 12/12 light dark cycle. Except for 12 hours before the experiment, when food fasting was initiated, all rats had free access to standard rat pellet diet and tap water. The animals were anesthetized by intraperitoneal injection of ketamine and xylazine combination (50 and 10 milligram per kilogram, respectively). […] The catheters were filled with normal saline solution containing 1000 IU/ml of heparin and plugged with a metal pin. Catheters were externalized to the back of the neck region and secured by a polyester felt disk.
After implantation, the rats were individually housed until they regained their preoperative weight and appeared healthy (3 to 4 days post-operation). At this time point (day 0), an osmotic mini-pump (Alza Corp., Palo Alto, Calif.) delivering constant volume (10 μl/hour) of vehicle or drug was connected to one of the intravenous catheters.
For inducing tolerance to the tested NO-donor according to the present invention, the animals received 200 μg/hour of the tested compound for 16 hours (short-term-induced tolerance). […]

CCc1nc(C)c(CCO[N+](=O)[O-])s1 [Pet-2, 2-Ethyl-4-methyl-5-(2-nitrooxy-ethyl)-thiazole]
vasorelaxation effect as compared with glyceryltrinitrate (isolated rat aorta): superior vasorelaxation effect | level of cGMP following a repeated treatment in vivo (tolerance induction) [1]: absence of tolerance induction; also recorded: remained substantially unchanged
